The test addresses T1, iron regulatory protein 1 (IRP1), endogenous in Jurkat cells (human (endogenous in Jurkat)) (UniProt P21399).
T1 sequence: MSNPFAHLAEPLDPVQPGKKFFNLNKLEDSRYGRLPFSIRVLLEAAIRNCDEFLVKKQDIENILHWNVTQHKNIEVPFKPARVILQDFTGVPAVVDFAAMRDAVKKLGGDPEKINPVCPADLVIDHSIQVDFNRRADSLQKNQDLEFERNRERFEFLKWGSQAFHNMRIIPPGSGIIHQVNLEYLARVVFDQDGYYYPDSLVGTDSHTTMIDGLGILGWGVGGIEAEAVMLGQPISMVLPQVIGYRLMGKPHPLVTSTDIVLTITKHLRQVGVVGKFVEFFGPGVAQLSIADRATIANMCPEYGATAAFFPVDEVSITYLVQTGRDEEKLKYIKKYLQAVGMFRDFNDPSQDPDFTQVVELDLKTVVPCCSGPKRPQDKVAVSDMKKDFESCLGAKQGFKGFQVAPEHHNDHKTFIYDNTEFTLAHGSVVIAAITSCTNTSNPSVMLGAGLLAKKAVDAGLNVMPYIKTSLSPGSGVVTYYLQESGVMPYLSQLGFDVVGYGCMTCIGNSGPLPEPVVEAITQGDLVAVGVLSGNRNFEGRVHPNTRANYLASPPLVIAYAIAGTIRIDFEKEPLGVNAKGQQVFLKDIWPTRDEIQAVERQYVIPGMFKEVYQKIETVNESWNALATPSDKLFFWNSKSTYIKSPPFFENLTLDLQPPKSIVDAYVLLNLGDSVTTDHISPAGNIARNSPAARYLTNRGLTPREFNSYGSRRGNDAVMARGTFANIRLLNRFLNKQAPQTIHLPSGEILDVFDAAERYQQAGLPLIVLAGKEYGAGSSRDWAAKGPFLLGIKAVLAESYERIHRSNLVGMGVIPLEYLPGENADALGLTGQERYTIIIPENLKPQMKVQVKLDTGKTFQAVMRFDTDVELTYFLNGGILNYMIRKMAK
Kind of test: co-IP.

Results are given in words; binding and its absence hold for the method and conditions named. In cells and extracts the contact can be indirect. Some entries that bind do so weakly or less than the wild type.

B1: thioredoxin 1 (Trx1), endogenous in Jurkat cells (protein, UniProt P10599 1-105)
chain: MVKQIESKTAFQEALDAAGDKLVVVDFSATWCGPCKMIKPFFHSLSEKYSNVIFLEVDVDDCQDVASECEVKCMPTFQFFKKGQKVGEFSGANKEKLEATINELV
Regarding B1, the binding entry is recorded as “binds”.

Source of the values: paper doi:10.1101/2020.08.04.235721.
